Results published in patent US20250179215A1, “PLASMIN-BINDING VHHS” (RHEINISCHE FRIEDRICH-WILHELMS-UNIVERSITÄT BONN, priority 2022, published 2025).
Some results were stated once for a whole list of compounds, not compound by compound.

Protein sequences, listed by entry. Tags and fused reporters are not part of them. Residues count along the entry.
UniProt P00747, 20-810 limits assumed: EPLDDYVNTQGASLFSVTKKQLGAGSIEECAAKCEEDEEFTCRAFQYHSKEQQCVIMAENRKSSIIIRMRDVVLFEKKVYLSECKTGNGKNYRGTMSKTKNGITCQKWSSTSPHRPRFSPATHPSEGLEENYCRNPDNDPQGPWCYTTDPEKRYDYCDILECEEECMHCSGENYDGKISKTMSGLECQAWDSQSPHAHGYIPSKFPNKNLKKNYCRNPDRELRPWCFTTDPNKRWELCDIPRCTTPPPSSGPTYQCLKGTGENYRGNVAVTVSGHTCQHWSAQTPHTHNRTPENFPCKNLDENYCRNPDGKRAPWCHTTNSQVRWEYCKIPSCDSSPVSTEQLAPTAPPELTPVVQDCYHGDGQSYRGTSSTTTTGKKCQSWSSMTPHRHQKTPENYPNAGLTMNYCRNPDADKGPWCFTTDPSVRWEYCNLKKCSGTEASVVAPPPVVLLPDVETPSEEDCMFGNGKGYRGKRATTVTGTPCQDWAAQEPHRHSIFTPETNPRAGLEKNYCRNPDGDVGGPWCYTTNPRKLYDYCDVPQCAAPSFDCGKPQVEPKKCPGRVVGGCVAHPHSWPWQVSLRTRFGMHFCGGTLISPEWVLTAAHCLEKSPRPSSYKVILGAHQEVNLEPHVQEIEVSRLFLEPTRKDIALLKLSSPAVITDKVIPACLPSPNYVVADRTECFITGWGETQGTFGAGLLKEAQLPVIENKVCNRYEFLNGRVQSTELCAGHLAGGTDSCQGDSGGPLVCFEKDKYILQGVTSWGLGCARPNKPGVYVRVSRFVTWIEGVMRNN
UniProt P00747, 97-580 limits assumed: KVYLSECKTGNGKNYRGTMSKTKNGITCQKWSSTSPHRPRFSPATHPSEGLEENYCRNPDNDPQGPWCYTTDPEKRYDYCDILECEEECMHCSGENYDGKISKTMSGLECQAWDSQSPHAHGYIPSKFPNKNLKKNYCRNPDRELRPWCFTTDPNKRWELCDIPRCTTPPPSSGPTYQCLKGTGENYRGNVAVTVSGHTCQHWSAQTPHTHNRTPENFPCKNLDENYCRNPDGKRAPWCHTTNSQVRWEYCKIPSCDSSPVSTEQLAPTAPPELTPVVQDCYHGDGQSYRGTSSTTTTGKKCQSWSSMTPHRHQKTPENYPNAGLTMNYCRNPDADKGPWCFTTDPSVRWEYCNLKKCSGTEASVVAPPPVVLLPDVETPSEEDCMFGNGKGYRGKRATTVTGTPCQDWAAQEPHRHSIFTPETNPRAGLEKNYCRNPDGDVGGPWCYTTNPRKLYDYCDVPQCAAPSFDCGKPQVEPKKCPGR
UniProt P00747, 581-810 limits assumed: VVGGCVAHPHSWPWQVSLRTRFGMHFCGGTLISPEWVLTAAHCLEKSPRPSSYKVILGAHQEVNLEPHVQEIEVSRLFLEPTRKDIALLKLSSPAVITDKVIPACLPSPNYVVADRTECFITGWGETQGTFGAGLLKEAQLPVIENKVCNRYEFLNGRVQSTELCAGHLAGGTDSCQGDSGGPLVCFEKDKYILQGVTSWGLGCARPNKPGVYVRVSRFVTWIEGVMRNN

B1: VHH A11: Plasmin-binding alpaca VHH; variable domain SEQ ID NO: 9, or 11 with C-terminal His6-tag; CDRs SEQ ID NO: 1-3 (protein)
VHH: QVQLVETGGGLVQAGGSLRLSCAASGNIFSINAMDWYRQAPGKERELVAAITSGGTTNYADSVKGRFTISRDNAKDTVYLQMNSLKPEDAAFYYCNADGYYSDYDKNLAEFNSWGQGTQVTVSS
modifications: A11 VHH
B2: VHH C5: Plasmin-binding alpaca VHH; variable domain SEQ ID NO: 10, or 20 with C-terminal His6-tag; CDRs SEQ ID NO: 4-6 (protein)
VHH: QVQLVESGGGLVQAGGSLRLSCAASGRRFMVVAMGWYRQAPGNQRELVASITNGGTTNYAGSVKGRFTISGDSAKNTVYLHMNSLKPEDTAVYYCTTDVVFRDGNGQIQSNWGQGTQVTVSS
modifications: C5 VHH

Tests used:
Assay type in all cases: biochemical
plasminogen = biological target: T1, plasminogen (Homo sapiens, UniProt P00747); assay: Plasmin generation assay (tPA-mediated plasminogen activation, purified system); details: for increase in the activation rate (tPA-induced plasmin generation): levels above 10^−7 M, plasminogen 10 nM, tPA 10 nM; for concentration above which tPA-dependent plasmin generation reaches a plateau: purified system
T1 construct: Plasma derived human Glu-plasminogen; purchased Haematologic Technologies, Inc. (plasminogen); Boehringer Ingelheim (tPA)
Protocol: In order to assess the influence of VHHs on tPA-mediated plasminogen activation, plasminogen was preincubated with increasing concentrations of VHHs. After addition of tPA, plasmin generation was measured over time using a fluorogenic plasmin peptide substrate.
FIG. 5. Influence of VHHs on tPA-mediated plasminogen activation. […] After addition of tPA (10 nM final concentration) plasmin generation was measured over time using the fluorogenic plasmin assay. The data are presented as mean±SD of three independent measurements.
Plasminogen (50 nM) was incubated with VHHs (2 μM to 0.2 μM) for 30 min at 37° C. in assay buffer. Subsequently, 20 μl of 50 nM tPA was added to the mixture and incubated at 37° C. After 3 hours of incubation at 37° C., 50 μl of the mixture were transferred to the wells of black F16 Fluoronunc modules and after addition of 50 μl of the plasmin-specific fluorogenic substrate (800 μM) fluorescence intensities were measured at λex of 360 nm and λem of 460 nm using the Synergy 2 microplate reader.

plasmin = biological target: T2, plasmin (Homo sapiens, UniProt P00747); assay: Plasmin inhibition assay (α2-AP-mediated plasmin inactivation); details: plasmin 10 nM, VHHs 3.16 μM or TXA 3 mM, α2AP 10 nM; without α2AP = 100%
T2 construct: human Lys-plasmin which is prepared from homogeneous Glu-plasminogen using uPA; purchased Haematologic Technologies, Inc. (Essex Junction, VT)
Protocol: FIG. 7. Impact of VHHs binding on α2-AP-mediated plasmin inactivation. […] After 30 min of incubation, the residual activity of plasmin was measured by addition of 50 μl of the sample to 50 μl of a plasmin-specific fluorogenic substrate (400 μM). The plasmin activity in the wells in the absence of VHHs and α2AP was considered as 100% activity and relative residual plasmin activities calculated accordingly. The data are presented as mean±SD of three independent measurements.
After incubation for 30 min at 37° C., 50 μl of the mixture were transferred to the wells of black F16 Fluoronunc modules and 50 μl of plasmin-specific fluorogenic substrate (800 μM) were added and substrate hydrolysis measured at λex of 360 nm and λem of 460 nm. The plasmin activity in the reactions containing all reagents except α2-AP was set as 100%.

[1] = tested on: citrate-anticoagulated whole blood; assay: Rotational thrombelastometry clot lysis in tPA-spiked whole blood; details: VHH plasma levels of 1 μM; reduced from approx. 45 min
From the text: To further test the fibrinolysis-activating properties of VHHs in an ex-vivo model of hyperfibrinolysis, a whole blood based assay can be used whereat citrate-anticoagulated whole blood in the presence of VHHs is spiked with tPA and clot formation and the fibrinolysis rate of the formed clot monitored by thrombelastometry after initiation of clotting by addition of CaCl2) solution containing recombinant TF.
FIG. 4. Influence of VHHs on endogenous fibrinolysis. (A) Citrate-anticoagulated whole blood was mixed with VHHs A11 or C5 and with tPA to achieve a final concentration of 0.5 μg/ml and clot formation was induced by addition of CaCl2) (0.2 M). (B) Lysis index at 60 min(C) Maximum lysis rates, and (D) lysis onset time were recorded. Mean values and SD were calculated out of three measurements.
The impact of VHHs on the fibrinolytic activity in plasma and whole blood was monitored using rotational thrombelastometry using the ROTEM delta system (TEM Innovations Ltd., Munich, Germany). […] The viscoelasticity of the formed clot was measured in terms of key parameters including clotting time, maximal clot firmness, maximum clot elasticity, maximum lysis, lysis index after 60 minutes, and lysis onset time.

Row | Molecule | increase in the activation rate (tPA-induced plasmin generation) (plasminogen) | concentration above which tPA-dependent plasmin generation reaches a plateau (plasminogen) | residual plasmin activity after α2AP (plasmin) | lysis onset time [1]
1 | B1 | 10-15 fold | exceeding 10^−8 M | 0.8-1% | less than 20 min
2 | B2 | 10-15 fold | exceeding 10^−8 M | 0.8-1% | less than 20 min
